From paper PMC9681113
Residue numbers refer to the chain shown, from its start. Read-outs that look alike come from different tables or passages of the source. Results are given in words; binding and its absence hold for the method and conditions named. In cells and extracts the contact can be indirect. Here binding means that the protein was enriched with, or labelled near, the bait; the list need not be complete. For part of these data: A no says only that the protein was not detected with the bait. Sequences can lack the tags named with a protein. One block for each molecule: values may come before it.

The chains behind the UniProt entries cited, without tags or fusion partners.
UniProt Q9Y605: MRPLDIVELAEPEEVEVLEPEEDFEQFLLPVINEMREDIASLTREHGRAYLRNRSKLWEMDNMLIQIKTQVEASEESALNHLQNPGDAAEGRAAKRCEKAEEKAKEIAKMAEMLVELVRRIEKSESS
UniProt Q13425: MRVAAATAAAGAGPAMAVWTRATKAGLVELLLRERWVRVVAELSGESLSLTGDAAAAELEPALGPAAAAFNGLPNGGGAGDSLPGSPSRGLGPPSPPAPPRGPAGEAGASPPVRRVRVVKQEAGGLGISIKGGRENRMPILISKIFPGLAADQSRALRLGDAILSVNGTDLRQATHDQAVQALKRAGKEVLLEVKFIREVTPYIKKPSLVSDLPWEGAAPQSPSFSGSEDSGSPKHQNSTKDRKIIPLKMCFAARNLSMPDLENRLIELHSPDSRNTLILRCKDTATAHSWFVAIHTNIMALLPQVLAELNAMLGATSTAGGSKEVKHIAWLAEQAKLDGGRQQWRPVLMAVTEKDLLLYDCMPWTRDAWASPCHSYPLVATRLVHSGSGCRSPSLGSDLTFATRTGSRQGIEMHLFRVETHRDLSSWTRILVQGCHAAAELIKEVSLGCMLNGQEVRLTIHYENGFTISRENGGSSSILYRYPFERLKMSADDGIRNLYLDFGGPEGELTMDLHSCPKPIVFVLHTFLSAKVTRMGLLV
UniProt Q13098: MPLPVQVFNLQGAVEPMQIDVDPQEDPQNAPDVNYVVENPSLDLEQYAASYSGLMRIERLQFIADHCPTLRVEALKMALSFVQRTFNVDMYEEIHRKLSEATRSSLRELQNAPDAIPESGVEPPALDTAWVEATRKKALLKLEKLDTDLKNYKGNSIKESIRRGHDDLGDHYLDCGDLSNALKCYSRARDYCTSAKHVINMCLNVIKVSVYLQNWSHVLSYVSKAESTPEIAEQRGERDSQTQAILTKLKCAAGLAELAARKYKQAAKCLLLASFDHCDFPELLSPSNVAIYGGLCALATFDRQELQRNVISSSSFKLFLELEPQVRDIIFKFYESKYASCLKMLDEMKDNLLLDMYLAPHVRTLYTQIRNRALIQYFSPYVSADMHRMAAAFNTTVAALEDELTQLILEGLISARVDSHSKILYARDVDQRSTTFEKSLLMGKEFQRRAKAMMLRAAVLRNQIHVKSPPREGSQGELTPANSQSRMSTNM
UniProt O15397: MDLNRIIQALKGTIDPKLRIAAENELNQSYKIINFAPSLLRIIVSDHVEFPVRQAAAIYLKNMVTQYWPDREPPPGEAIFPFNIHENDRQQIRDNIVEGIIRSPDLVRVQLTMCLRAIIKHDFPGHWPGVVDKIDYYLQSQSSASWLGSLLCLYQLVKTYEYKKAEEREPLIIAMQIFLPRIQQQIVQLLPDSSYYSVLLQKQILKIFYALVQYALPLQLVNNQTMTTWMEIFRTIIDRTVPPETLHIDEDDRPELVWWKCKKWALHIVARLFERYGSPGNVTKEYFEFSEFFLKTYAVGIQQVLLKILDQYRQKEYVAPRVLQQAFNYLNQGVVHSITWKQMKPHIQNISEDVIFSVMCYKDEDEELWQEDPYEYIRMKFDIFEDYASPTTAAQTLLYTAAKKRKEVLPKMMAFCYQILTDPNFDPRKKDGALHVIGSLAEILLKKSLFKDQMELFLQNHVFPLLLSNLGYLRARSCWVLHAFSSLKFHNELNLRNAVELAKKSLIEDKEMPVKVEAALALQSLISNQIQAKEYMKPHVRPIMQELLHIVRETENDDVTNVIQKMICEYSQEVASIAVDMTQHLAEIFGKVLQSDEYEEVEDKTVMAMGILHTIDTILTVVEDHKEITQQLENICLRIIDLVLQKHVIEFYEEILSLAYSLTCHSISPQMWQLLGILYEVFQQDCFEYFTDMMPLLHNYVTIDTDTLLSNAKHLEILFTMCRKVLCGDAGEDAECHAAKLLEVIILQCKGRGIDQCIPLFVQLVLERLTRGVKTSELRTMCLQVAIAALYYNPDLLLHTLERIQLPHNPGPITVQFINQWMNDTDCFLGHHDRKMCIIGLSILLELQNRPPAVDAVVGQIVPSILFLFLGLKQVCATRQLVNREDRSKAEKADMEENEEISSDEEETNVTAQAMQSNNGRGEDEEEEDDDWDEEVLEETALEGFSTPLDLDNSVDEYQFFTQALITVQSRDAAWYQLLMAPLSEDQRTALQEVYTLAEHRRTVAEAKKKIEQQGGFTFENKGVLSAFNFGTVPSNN
UniProt P27448: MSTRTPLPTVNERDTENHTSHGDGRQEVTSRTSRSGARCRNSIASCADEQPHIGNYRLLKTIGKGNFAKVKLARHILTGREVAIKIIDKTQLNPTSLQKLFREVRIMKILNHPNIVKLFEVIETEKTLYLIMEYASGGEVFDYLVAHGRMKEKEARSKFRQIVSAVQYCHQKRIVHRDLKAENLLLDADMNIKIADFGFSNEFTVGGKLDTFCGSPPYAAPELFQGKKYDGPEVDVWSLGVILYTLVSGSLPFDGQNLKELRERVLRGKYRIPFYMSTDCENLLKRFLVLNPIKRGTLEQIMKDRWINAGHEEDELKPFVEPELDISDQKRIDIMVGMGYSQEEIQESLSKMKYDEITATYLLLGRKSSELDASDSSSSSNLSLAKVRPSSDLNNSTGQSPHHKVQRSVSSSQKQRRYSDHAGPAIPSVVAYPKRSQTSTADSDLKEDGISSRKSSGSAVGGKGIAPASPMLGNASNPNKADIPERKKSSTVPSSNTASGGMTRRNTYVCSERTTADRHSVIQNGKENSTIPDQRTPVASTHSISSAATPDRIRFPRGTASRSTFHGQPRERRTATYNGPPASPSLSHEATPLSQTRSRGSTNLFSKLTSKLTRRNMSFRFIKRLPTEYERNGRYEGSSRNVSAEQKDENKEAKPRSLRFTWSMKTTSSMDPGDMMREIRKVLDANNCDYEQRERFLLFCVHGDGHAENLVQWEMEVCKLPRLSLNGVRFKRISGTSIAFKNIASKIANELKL
UniProt P46063: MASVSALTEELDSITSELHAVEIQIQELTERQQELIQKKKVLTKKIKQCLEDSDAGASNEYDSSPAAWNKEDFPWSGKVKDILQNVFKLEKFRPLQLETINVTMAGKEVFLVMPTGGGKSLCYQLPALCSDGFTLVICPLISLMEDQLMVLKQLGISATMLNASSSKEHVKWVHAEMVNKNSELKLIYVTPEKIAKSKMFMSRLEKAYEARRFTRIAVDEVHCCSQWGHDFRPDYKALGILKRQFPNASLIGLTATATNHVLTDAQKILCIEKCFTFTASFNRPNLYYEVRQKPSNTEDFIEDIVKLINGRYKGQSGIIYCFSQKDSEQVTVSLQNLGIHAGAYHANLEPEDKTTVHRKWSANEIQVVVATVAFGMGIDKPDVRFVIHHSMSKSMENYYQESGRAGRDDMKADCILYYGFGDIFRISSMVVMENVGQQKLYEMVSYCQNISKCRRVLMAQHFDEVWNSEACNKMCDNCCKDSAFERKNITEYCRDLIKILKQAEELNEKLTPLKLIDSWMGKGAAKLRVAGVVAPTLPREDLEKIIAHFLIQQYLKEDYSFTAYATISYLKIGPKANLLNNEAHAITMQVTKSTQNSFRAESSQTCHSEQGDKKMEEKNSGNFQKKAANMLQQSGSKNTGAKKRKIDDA
UniProt P13984: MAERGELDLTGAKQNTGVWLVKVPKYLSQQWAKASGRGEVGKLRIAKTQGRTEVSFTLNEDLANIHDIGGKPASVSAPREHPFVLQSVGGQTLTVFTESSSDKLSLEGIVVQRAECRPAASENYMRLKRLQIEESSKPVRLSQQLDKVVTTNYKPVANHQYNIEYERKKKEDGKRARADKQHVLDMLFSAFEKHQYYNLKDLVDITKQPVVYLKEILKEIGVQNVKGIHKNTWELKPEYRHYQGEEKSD
UniProt O00311: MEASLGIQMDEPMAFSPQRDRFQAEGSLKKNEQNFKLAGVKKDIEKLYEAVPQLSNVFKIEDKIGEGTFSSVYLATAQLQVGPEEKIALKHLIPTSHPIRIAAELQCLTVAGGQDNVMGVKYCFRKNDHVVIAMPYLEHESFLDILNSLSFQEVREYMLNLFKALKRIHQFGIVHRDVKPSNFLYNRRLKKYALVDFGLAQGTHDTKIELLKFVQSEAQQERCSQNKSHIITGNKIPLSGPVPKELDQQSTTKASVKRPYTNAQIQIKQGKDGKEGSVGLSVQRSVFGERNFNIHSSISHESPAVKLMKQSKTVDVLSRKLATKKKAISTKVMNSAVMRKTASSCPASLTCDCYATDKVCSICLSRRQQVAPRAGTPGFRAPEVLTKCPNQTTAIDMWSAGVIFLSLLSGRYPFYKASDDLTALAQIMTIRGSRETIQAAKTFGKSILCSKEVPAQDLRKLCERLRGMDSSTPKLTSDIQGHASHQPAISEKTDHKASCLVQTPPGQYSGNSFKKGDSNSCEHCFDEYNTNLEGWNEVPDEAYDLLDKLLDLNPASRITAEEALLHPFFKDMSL
UniProt Q9NV88: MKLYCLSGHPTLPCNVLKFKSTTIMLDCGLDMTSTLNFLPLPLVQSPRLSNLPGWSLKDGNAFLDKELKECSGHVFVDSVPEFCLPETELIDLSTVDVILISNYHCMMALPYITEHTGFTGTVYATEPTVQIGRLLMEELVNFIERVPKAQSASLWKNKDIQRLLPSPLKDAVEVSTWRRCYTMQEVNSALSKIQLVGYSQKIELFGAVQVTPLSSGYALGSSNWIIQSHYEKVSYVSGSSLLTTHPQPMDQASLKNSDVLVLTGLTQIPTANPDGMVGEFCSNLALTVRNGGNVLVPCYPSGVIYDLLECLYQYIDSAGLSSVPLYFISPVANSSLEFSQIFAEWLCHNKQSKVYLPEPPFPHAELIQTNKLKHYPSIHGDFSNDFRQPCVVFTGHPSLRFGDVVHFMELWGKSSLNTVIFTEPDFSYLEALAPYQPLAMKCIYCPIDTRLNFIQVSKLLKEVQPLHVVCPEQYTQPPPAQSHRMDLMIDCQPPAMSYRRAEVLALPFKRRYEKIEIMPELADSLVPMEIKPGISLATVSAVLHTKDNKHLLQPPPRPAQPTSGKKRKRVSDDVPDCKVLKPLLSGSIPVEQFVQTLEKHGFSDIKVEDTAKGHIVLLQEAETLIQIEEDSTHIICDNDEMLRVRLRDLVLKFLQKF
UniProt Q10471: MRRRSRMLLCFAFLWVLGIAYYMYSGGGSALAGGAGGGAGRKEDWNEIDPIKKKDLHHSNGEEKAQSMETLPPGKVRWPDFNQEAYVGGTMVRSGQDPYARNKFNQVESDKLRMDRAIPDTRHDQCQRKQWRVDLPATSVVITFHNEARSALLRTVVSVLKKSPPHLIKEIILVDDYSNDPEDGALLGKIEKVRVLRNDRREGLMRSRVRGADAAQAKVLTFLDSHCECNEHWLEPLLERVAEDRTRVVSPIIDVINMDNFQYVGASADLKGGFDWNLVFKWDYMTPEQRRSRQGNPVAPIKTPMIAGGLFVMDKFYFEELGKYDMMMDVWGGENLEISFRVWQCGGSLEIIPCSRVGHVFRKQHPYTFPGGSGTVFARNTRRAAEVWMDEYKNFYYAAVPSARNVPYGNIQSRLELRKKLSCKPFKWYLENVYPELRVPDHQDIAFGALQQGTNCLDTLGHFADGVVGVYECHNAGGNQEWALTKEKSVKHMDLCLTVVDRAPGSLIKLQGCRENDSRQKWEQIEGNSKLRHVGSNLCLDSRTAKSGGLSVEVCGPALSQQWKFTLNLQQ
UniProt P25685: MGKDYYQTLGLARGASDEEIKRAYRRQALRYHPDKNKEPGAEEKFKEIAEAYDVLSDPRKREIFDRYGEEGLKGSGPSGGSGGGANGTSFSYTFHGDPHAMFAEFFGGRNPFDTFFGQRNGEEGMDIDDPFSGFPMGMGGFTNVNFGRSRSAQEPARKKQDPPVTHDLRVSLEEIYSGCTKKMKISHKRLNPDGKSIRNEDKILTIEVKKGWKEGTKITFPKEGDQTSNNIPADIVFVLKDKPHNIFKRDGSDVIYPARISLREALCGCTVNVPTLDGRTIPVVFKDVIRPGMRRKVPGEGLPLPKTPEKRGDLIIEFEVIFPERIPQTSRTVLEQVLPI
UniProt Q14592: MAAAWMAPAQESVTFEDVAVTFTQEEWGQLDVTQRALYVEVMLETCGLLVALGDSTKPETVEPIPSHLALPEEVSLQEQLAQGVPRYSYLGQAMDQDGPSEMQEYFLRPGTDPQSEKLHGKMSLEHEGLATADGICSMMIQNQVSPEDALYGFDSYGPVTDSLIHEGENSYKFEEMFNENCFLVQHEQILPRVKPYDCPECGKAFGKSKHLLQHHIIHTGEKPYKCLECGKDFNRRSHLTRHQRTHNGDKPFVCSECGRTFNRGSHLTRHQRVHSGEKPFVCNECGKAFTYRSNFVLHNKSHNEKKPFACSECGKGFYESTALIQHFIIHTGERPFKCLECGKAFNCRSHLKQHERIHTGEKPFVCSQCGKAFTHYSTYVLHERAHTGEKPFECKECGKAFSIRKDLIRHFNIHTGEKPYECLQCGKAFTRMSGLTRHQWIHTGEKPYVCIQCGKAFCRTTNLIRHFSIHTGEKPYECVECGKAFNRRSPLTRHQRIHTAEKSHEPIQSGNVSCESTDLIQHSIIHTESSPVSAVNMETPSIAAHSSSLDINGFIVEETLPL

How the values were obtained:
Experiment in all cases: affinity purification with mass spectrometry; GFP pulldown with GFP Tag Immunomagnetic Beads from lysates of HEK-293 Flp-In T-REx cells expressing EGFP, EGFP-MAB21L1 or mutant EGFP-MAB21L1 after 12 hrs of 1 μg/ml tetracycline; three biological replicates; MaxQuant
[1] = biological target: T1, GFP-tagged MAB21L1 Arg51Gln (human) (UniProt Q13394)
T1 sequence: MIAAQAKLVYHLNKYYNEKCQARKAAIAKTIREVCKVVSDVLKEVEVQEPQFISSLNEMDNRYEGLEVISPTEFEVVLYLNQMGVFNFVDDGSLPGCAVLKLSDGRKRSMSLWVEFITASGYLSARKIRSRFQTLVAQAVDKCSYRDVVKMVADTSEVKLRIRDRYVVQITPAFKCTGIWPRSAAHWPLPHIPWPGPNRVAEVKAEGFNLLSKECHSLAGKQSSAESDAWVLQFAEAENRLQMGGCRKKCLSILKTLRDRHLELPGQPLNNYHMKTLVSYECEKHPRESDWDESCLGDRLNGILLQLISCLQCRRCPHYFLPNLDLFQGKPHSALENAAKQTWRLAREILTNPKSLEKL

[2] = biological target: T2, GFP-tagged MAB21L1 Arg51Leu (human) (UniProt Q13394)
T2 sequence: T1 sequence with Q51L

[3] = biological target: T3, GFP-tagged wild-type MAB21L1 (human) (UniProt Q13394)
T3 sequence: T1 sequence with Q51R

[4] = biological target: T1, GFP-tagged MAB21L1 Arg51Gln (human); remark: listed apart in the source
[5] = biological target: T2, GFP-tagged MAB21L1 Arg51Leu (human); remark: listed apart in the source
[6] = biological target: T3, GFP-tagged wild-type MAB21L1 (human); remark: listed apart in the source

binding [1]: binds | binding [2]: binds | binding [3]: binds
Molecule: MRFAP1 (from UniProt Q9Y605 1-127)

binding [1]: binds | binding [2]: binds | binding [3]: binds
Molecule: SNTB2 (from UniProt Q13425 1-540)

binding [1]: binds | binding [2]: binds | binding [3]: binds
Molecule: GPS1 (from UniProt Q13098 1-491)

binding [1]: binds | binding [2]: binds | binding [3]: binds
Molecule: ZC3H7A (from UniProt Q8IWR0 1-971)

binding [1]: binds | binding [2]: binds | binding [3]: binds
Molecule: IPO8 (from UniProt O15397 1-1037)

binding [1]: binds | binding [2]: binds | binding [3]: binds
Molecule: MARK3 (from UniProt P27448 1-753)

binding [1]: binds | binding [2]: binds | binding [3]: binds
Molecule: RECQL (from UniProt P46063 1-649)

The remaining lines, values behind:

Molecule: SARS2 (from UniProt Q9NP81 35-518)
binding [1]: binds | binding [2]: binds | binding [3]: binds

Molecule: GTF2F2 (from UniProt P13984 1-249)
binding [1]: binds | binding [2]: binds | binding [3]: binds

Molecule: Musashi-1 (from UniProt O43347 1-362)
binding [1]: binds | binding [2]: binds | binding [3]: binds

Molecule: NCBP1 (from UniProt Q09161 1-790)
binding [1]: binds | binding [2]: binds | binding [3]: binds

Molecule: CDC7 (from UniProt O00311 1-574)
binding [1]: binds | binding [2]: binds | binding [3]: binds

Molecule: DIAPH1 (from UniProt O60610 1-1272)
binding [1]: binds | binding [2]: binds | binding [3]: binds

Molecule: INTS9 (from UniProt Q9NV88 1-658)
binding [1]: binds | binding [2]: binds | binding [3]: binds

Molecule: GALNT2 (from UniProt Q10471 1-571)
binding [1]: binds | binding [2]: binds | binding [3]: no binding

Molecule: ATXN3 (from UniProt P54252 1-361)
binding [1]: binds | binding [2]: binds | binding [3]: binds

Molecule: DNAJB1 (from UniProt P25685 1-340)
binding [1]: binds | binding [2]: binds | binding [3]: binds

Molecule: ZNF460 (from UniProt Q14592 1-562)
binding [1]: binds | binding [2]: binds | binding [3]: binds

B1: PDXDC1 (protein, UniProt Q6P996 1-788)
chain: MDASLEKIADPTLAEMGKNLKEAVKMLEDSQRRTEEENGKKLISGDIPGPLQGSGQDMVSILQLVQNLMHGDEDEEPQSPRIQNIGEQGHMALLGHSLGAYISTLDKEKLRKLTTRILSDTTLWLCRIFRYENGCAYFHEEEREGLAKICRLAIHSRYEDFVVDGFNVLYNKKPVIYLSAAARPGLGQYLCNQLGLPFPCLCRVPCNTVFGSQHQMDVAFLEKLIKDDIERGRLPLLLVANAGTAAVGHTDKIGRLKELCEQYGIWLHVEGVNLATLALGYVSSSVLAAAKCDSMTMTPGPWLGLPAVPAVTLYKHDDPALTLVAGLTSNKPTDKLRALPLWLSLQYLGLDGFVERIKHACQLSQRLQESLKKVNYIKILVEDELSSPVVVFRFFQELPGSDPVFKAVPVPNMTPSGVGRERHSCDALNRWLGEQLKQLVPASGLTVMDLEAEGTCLRFSPLMTAAVLGTRGEDVDQLVACIESKLPVLCCTLQLREEFKQEVEATAGLLYVDDPNWSGIGVVRYEHANDDKSSLKSDPEGENIHAGLLKKLNELESDLTFKIGPEYKSMKSCLYVGMASDNVDAAELVETIAATAREIEENSRLLENMTEVVRKGIQEAQVELQKASEERLLEEGVLRQIPVVGSVLNWFSPVQALQKGRTFNLTAGSLESTEPIYVYKAQGAGVTLPPTPSGSRTKQRLPGQKPFKRSLRGSDALSETSSVSHIEDLEKVERLSSGPEQITLEASSTEGHPGAPSPQHTDQTEAFQKGVPHPEDDHSQVEGPESLR
binding [4]: binds | binding [5]: binds | binding [6]: binds

B2: RNF219 (protein, UniProt Q5W0B1 1-726)
chain: MAQTVQNVTLSLTLPITCHICLGKVRQPVICINNHVFCSICIDLWLKNNSQCPACRVPITPENPCKEIIGGTSESEPMLSHTVRKHLRKTRLELLHKEYEDEIDCLQKEVEELKSKNLSLESQIKTILDPLTLVQGNQNEDKHLVTDNPSKINPETVAEWKKKLRTANEIYEKVKDDVDKLKEANKKLKLENGGLVRENLRLKAEVDNRSPQKFGRFAVAALQSKVEQYERETNRLKKALERSDKYIEELESQVAQLKNSSEEKEAMNSICQTALSADGKGSKGSEEDVVSKNQGDSARKQPGSSTSSSSHLAKPSSSRLCDTSSARQESTSKADLNCSKNKDLYQEQVEVMLDVTDTSMDTYLEREWGNKPSDCVPYKDEELYDLPAPCTPLSLSCLQLSTPENRESSVVQAGGSKKHSNHLRKLVFDDFCDSSNVSNKDSSEDDISRSENEKKSECFSSPKTGFWDCCSTSYAQNLDFESSEGNTIANSVGEISSKLSEKSGLCLSKRLNSIRSFEMNRTRTSSEASMDAAYLDKISELDSMMSESDNSKSPCNNGFKSLDLDGLSKSSQGSEFLEEPDKLEEKTELNLSKGSLTNDQLENGSEWKPTSFFLLSPSDQEMNEDFSLHSSSCPVTNEIKPPSCLFQTEFSQGILLSSSHRLFEDQRFGSSLFKMSSEMHSLHNHLQSPWSTSFVPEKRNKNVNQSTKRKIQSSLSSASPSKATKS
binding [4]: binds | binding [5]: binds | binding [6]: binds

B3: METTL16 (protein, UniProt Q86W50 1-562)
chain: MALSKSMHARNRYKDKPPDFAYLASKYPDFKQHVQINLNGRVSLNFKDPEAVRALTCTLLREDFGLSIDIPLERLIPTVPLRLNYIHWVEDLIGHQDSDKSTLRRGIDIGTGASCIYPLLGATLNGWYFLATEVDDMCFNYAKKNVEQNNLSDLIKVVKVPQKTLLMDALKEESEIIYDFCMCNPPFFANQLEAKGVNSRNPRRPPPSSVNTGGITEIMAEGGELEFVKRIIHDSLQLKKRLRWYSCMLGKKCSLAPLKEELRIQGVPKVTYTEFCQGRTMRWALAWSFYDDVTVPSPPSKRRKLEKPRKPITFVVLASVMKELSLKASPLRSETAEGIVVVTTWIEKILTDLKVQHKRVPCGKEEVSLFLTAIENSWIHLRRKKRERVRQLREVPRAPEDVIQALEEKKPTPKESGNSQELARGPQERTPCGPALREGEAAAVEGPCPSQESLSQEENPEPTEDERSEEKGGVEVLESCQGSSNGAQDQEASEQFGSPVAERGKRLPGVAGQYLFKCLINVKKEVDDALVEMHWVEGQNRDLMNQLCTYIRNQIFRLVAVN
binding [4]: binds | binding [5]: binds | binding [6]: binds
